Measurements reported in PubChem BioAssay AID1259308 (NCATS, 2017).
Assay: 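Candidate targets for better recombinant protein yield in mammalian cells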 (primary screen). Cells: human HEK293 embryonic kidney cells stably expressing firefly luciferase (HEK-CMV-Luc2-Hygro). Reagents: single siRNA against human genes, 0.8 pmol siRNA per well. Time to read-out: 72 h. Measured: 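Luciferase light (ONE-Glo) measured on one replicate plate set and viability (CellTiter-Glo) on the other, scaled to a negative control siRNA, with robust z-scores and luciferase per cell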. Reading the numbers: total luciferase, z-score: higher = more reporter protein produced. Active means: 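Active when the median/MAD z-score for overall luciferase is greater than 3; a gene was taken forward for validation with new siRNAs if at least two of its three siRNAs passed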. Meaning of the calls: active = raised luciferase; inactive = no rise.
Shown is one part, drawn at random, of about 59,000 deposited reagents. About 1,510 of all reagents (2.6%) count as active. 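Calls use total luciferase alone and ignore viability, so some active siRNAs may act by altering cell number.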 Not all columns of the deposit are shown.

{"gene knocked down": "MMP14", "PubChem SID": "SID160777360", "total luciferase, z-score": 0.897, "call": "inactive"}
{"gene knocked down": "MMP14", "PubChem SID": "SID160777361", "total luciferase, z-score": -2.31, "call": "inactive"}
{"gene knocked down": "MMP14", "PubChem SID": "SID160777362", "total luciferase, z-score": -0.368, "call": "inactive"}
{"gene knocked down": "OR8U3", "PubChem SID": "SID160761276", "total luciferase, z-score": 1.78, "call": "inactive"}
{"gene knocked down": "OR8U3", "PubChem SID": "SID160761278", "total luciferase, z-score": -1.72, "call": "inactive"}
{"gene knocked down": "OR8U3", "PubChem SID": "SID160761279", "total luciferase, z-score": -0.809, "call": "inactive"}
{"gene knocked down": "BTF3", "PubChem SID": "SID160729209", "total luciferase, z-score": 0.363, "call": "inactive"}
{"gene knocked down": "BTF3", "PubChem SID": "SID160729219", "total luciferase, z-score": 1.51, "call": "inactive"}
{"gene knocked down": "BTF3", "PubChem SID": "SID160729230", "total luciferase, z-score": -1.96, "call": "inactive"}
{"gene knocked down": "RAET1G", "PubChem SID": "SID160765140", "total luciferase, z-score": 0.66, "call": "inactive"}
{"gene knocked down": "RAET1G", "PubChem SID": "SID160765141", "total luciferase, z-score": -0.641, "call": "inactive"}
{"gene knocked down": "RAET1G", "PubChem SID": "SID160765142", "total luciferase, z-score": 1.21, "call": "inactive"}

As entered above.
BTF3 [SID160729230], call = inactive
BTF3 [SID160729209], total luciferase, z-score → 0.363
For “total luciferase, z-score”, RAET1G [SID160765142] shows 1.21
Entry of MMP14 [SID160777361] in “call”: inactive
Value of RAET1G [SID160765141] in “call”: inactive

The list goes on.
{"gene knocked down": "TMOD3", "PubChem SID": "SID160739151", "total luciferase, z-score": -0.197, "call": "inactive"}
{"gene knocked down": "TMOD3", "PubChem SID": "SID160739152", "total luciferase, z-score": -1.33, "call": "inactive"}
{"gene knocked down": "TMOD3", "PubChem SID": "SID160739154", "total luciferase, z-score": -0.271, "call": "inactive"}
{"gene knocked down": "IRX2", "PubChem SID": "SID160759349", "total luciferase, z-score": -0.275, "call": "inactive"}
{"gene knocked down": "IRX2", "PubChem SID": "SID160759352", "total luciferase, z-score": -0.531, "call": "inactive"}
{"gene knocked down": "IRX2", "PubChem SID": "SID160759353", "total luciferase, z-score": 1.53, "call": "inactive"}
{"gene knocked down": "SLITRK6", "PubChem SID": "SID160751862", "total luciferase, z-score": -1.68, "call": "inactive"}
{"gene knocked down": "SLITRK6", "PubChem SID": "SID160751863", "total luciferase, z-score": -0.752, "call": "inactive"}
{"gene knocked down": "SLITRK6", "PubChem SID": "SID160751864", "total luciferase, z-score": -0.428, "call": "inactive"}
{"gene knocked down": "DNM3", "PubChem SID": "SID160737542", "total luciferase, z-score": -0.744, "call": "inactive"}
{"gene knocked down": "DNM3", "PubChem SID": "SID160737543", "total luciferase, z-score": -1.07, "call": "inactive"}
{"gene knocked down": "DNM3", "PubChem SID": "SID160737544", "total luciferase, z-score": 1.59, "call": "inactive"}
{"gene knocked down": "ZNF780A", "PubChem SID": "SID160731001", "total luciferase, z-score": -0.797, "call": "inactive"}
{"gene knocked down": "ZNF780A", "PubChem SID": "SID160763253", "total luciferase, z-score": 0.277, "call": "inactive"}
{"gene knocked down": "ZNF780A", "PubChem SID": "SID160763254", "total luciferase, z-score": -1.2, "call": "inactive"}
{"gene knocked down": "FAM234A", "PubChem SID": "SID160751588", "total luciferase, z-score": 0.117, "call": "inactive"}
{"gene knocked down": "FAM234A", "PubChem SID": "SID160751589", "total luciferase, z-score": -0.677, "call": "inactive"}
{"gene knocked down": "FAM234A", "PubChem SID": "SID160751590", "total luciferase, z-score": 0.855, "call": "inactive"}
{"gene knocked down": "EIF3I", "PubChem SID": "SID160720560", "total luciferase, z-score": -2.53, "call": "inactive"}
{"gene knocked down": "EIF3I", "PubChem SID": "SID160720561", "total luciferase, z-score": -2.77, "call": "inactive"}
{"gene knocked down": "EIF3I", "PubChem SID": "SID160720562", "total luciferase, z-score": -2.25, "call": "inactive"}
